According to the supplement of paper PMC11732987, “Enantioselective OTUD7B fragment discovery through chemoproteomics screening and high-throughput optimisation” (Communications Chemistry, 2025):
This is one part of the list. The data scatter; read single values as rough.

The chains behind the UniProt entries cited, without tags or fusion partners. Where a name states a change or a piece, a line headed by the entry shows the natural chain unless it says otherwise. Residues count along the entry.
UniProt P17028: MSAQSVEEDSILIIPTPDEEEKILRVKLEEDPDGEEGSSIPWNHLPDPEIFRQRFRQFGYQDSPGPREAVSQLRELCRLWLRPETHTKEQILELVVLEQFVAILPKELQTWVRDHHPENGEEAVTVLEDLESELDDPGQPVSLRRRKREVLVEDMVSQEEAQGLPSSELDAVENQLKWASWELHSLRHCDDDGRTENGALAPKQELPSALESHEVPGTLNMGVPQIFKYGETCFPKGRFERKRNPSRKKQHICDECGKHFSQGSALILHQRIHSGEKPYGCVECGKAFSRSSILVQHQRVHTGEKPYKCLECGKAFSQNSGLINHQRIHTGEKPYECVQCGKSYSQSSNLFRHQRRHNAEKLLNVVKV
UniProt Q96K58, 40-65: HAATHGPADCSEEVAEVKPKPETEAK
UniProt Q9NTW7: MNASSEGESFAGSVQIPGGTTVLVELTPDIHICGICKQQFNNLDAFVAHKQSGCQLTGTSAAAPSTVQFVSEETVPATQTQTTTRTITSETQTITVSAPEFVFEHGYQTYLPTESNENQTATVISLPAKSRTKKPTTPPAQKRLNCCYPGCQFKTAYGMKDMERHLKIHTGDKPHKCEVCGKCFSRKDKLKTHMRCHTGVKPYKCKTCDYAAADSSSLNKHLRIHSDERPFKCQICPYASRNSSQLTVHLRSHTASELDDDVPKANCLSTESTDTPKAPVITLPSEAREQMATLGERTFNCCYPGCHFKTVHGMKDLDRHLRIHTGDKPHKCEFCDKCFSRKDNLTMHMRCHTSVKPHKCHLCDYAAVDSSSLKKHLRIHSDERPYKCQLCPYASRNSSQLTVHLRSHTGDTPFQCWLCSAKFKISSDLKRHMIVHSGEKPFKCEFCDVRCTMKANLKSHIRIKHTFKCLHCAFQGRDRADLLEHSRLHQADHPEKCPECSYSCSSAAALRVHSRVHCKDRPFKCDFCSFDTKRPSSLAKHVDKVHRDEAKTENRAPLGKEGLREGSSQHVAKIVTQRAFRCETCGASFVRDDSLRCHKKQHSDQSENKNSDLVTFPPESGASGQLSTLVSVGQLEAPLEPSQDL
UniProt Q5VZL5: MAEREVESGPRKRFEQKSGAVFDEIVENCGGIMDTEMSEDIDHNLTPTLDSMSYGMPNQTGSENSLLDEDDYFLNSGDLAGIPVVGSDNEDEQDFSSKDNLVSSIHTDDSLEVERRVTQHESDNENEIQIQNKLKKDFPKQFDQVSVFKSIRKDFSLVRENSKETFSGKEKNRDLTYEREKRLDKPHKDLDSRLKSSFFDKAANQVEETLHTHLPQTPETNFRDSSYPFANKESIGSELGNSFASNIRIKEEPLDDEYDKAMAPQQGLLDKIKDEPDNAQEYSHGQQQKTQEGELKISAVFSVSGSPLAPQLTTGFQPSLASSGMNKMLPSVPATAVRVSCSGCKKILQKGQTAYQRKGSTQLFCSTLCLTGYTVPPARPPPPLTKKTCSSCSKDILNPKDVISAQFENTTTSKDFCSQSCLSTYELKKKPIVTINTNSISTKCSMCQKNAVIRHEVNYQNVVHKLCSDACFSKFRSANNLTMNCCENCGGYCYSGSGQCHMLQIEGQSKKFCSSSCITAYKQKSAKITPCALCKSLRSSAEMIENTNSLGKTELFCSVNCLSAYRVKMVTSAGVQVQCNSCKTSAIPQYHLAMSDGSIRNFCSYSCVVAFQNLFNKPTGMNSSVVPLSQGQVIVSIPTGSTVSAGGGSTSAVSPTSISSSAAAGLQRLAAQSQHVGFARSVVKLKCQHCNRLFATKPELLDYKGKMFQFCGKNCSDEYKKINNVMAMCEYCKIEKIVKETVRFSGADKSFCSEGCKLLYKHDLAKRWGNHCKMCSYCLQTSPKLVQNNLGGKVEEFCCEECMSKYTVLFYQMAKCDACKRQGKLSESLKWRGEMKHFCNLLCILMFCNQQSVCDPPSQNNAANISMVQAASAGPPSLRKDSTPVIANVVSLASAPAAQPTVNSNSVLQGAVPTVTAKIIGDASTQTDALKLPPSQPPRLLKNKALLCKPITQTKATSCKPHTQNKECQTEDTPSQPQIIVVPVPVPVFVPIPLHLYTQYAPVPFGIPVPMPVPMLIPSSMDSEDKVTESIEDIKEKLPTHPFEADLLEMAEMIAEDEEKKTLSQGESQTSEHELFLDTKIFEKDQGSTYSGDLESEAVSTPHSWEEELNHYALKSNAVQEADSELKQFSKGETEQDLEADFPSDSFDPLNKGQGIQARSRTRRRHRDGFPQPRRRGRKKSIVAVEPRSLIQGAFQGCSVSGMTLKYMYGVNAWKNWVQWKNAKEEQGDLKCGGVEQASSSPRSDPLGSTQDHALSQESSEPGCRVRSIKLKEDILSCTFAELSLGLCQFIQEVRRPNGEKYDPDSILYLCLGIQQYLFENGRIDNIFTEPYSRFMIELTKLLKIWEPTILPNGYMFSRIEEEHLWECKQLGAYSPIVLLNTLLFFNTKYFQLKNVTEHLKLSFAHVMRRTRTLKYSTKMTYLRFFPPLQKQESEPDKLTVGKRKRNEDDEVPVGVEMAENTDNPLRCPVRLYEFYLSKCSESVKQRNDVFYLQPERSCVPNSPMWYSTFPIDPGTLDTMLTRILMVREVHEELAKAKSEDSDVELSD
UniProt Q7Z7L7: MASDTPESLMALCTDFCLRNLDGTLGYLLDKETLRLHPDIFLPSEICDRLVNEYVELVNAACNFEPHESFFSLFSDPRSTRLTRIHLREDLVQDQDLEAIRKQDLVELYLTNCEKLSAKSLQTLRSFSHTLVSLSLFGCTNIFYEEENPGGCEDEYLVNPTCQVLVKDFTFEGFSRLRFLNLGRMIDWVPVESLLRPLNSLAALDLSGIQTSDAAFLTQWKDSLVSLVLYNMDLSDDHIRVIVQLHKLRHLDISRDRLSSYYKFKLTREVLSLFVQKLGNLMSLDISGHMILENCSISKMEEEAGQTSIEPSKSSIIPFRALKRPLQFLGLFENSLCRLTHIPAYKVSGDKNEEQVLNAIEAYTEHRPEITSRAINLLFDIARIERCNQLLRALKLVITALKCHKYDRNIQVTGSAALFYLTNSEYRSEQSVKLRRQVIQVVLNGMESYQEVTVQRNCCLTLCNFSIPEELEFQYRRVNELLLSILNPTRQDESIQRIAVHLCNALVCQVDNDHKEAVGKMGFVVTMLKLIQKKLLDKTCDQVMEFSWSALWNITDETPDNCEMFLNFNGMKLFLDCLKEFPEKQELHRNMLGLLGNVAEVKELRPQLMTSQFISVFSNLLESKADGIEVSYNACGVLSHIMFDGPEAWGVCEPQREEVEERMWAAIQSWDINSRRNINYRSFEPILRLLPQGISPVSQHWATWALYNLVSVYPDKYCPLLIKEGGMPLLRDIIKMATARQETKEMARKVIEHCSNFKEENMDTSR
UniProt Q8TCF1: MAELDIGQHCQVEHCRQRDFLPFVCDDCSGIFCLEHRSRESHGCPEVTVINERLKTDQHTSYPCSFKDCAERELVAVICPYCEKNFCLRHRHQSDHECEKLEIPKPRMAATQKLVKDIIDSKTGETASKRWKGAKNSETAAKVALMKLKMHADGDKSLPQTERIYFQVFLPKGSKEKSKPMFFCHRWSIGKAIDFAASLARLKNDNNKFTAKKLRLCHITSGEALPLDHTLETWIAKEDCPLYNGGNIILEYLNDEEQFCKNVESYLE
UniProt P17098: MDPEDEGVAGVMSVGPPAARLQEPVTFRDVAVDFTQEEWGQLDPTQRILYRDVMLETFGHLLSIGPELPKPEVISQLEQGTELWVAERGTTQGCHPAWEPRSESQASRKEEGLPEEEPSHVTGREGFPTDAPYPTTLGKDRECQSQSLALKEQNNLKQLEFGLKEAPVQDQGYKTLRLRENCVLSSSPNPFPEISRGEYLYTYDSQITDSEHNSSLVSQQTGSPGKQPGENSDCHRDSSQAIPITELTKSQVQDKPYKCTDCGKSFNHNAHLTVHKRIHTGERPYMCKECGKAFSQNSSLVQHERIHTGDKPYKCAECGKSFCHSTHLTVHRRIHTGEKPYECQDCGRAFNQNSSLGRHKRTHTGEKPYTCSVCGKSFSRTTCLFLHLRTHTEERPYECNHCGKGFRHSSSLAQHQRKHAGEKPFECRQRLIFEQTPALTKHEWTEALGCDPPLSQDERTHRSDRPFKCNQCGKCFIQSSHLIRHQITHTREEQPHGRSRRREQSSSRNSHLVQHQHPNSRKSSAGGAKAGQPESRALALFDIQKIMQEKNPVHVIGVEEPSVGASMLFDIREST
UniProt Q7Z3T8: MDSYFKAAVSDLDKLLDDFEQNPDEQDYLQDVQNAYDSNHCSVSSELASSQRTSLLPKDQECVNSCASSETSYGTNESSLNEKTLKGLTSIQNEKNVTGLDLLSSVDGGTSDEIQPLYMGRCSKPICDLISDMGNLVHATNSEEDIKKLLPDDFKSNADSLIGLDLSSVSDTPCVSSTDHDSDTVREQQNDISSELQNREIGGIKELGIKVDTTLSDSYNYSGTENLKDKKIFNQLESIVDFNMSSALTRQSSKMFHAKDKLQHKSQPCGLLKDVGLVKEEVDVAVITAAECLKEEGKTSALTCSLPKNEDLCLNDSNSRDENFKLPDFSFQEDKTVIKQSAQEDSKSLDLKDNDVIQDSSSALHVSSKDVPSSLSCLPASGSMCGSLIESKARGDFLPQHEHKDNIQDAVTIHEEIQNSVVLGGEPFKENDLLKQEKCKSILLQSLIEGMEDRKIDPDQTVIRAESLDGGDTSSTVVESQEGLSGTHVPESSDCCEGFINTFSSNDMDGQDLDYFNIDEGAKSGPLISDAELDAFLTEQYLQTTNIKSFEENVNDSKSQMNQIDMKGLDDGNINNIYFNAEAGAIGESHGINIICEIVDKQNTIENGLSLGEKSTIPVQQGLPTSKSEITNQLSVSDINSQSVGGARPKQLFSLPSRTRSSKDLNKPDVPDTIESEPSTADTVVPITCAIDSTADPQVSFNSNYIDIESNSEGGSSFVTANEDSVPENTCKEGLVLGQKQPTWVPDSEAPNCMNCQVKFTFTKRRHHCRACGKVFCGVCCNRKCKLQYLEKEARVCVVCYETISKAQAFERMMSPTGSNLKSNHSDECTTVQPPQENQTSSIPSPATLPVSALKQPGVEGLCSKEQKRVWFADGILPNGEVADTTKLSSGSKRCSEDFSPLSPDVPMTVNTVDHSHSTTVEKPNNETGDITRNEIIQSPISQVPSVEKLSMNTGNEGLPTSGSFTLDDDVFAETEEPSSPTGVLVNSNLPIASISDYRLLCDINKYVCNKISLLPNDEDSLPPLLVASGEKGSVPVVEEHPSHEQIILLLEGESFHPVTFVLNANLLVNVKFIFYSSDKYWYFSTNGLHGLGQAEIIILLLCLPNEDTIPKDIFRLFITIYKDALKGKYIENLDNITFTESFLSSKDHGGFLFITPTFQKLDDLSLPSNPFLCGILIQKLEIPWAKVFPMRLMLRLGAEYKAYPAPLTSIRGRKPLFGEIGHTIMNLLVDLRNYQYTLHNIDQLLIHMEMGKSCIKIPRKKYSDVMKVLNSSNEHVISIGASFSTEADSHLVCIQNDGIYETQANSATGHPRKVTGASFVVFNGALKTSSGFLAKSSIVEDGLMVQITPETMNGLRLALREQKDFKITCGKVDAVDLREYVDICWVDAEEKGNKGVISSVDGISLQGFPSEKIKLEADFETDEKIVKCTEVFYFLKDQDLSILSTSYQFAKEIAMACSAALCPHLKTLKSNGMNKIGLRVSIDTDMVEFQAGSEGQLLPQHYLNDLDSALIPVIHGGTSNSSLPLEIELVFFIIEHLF
UniProt Q9UGR2, 142-162: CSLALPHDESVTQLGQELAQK
UniProt Q86WB0: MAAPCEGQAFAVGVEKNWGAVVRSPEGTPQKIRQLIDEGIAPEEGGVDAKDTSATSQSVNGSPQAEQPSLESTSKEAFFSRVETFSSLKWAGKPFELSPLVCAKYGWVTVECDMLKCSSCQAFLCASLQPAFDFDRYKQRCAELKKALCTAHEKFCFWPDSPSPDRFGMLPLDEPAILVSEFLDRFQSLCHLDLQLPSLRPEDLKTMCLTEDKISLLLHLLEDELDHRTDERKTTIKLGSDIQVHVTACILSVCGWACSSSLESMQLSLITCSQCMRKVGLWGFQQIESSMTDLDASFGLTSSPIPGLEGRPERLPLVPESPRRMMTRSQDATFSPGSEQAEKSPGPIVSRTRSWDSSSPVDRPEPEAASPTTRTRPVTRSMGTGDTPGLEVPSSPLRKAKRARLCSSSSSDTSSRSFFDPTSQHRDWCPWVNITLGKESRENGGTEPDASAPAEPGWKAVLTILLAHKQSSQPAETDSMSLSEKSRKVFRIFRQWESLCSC

These targets were tested with ClCC(=O)N[C@H]1CCCc2ccccc12 (assay: log2 mean competition ratio of IA-DTB cysteine labelling (DMSO/compound) (log2 ratio); higher = stronger cysteine engagement by compound). Settings: 50 µM; treatment time: 4 h; cell line lysate: HEK293T.
Method: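 IA-DTB competitive cysteine chemoproteomics in HEK293T RIPA lysate. Lysates were treated with compound 29 or 30 at 50 or 200 µM for 4 h, then IA-DTB (500 µM, 1 h), trypsin-digested, NeutrAvidin-enriched and analysed by diaPASEF. Competition ratio = intensity DMSO / intensity compound (n=4 treated, n=64 DMSO); binding: mean log2 CR ≥ 1 and p ≤ 0.05 plus QC filters. Target is the cysteine site.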

Row | Target | log2 mean competition ratio
1 | ZNF24 C233 (UniProt P17028) | 0.00872
2 | ZNF668 C49 (UniProt Q96K58) | 0.0293
3 | ZFP64 C267 (UniProt Q9NTW7) | -0.337
4 | ZNF805 C185 | -0.228
5 | ZMYM4 C1232 (UniProt Q5VZL5) | -0.108
6 | ZNF616 C163 | -0.458
7 | ZNF428 C111 | -0.133
8 | ZDBF2 C1597 | 0.0294
9 | ZER1 C113 (UniProt Q7Z7L7) | -0.362
10 | ZFYVE26 C2428 (UniProt Q68DK2) | 0.101
11 | ZFAND1 C184 (UniProt Q8TCF1) | 0.299
12 | ZKSCAN2 C109 | -0.474
13 | ZNF668 C241 (UniProt Q96K58) | 0.112
14 | ZNF8 C94 (UniProt P17098) | 0.485
15 | ZFYVE16 C1002 (UniProt Q7Z3T8) | 0.0191
16 | ZNF451 C461 (UniProt Q9Y4E5) | -0.329
17 | ZC3H7B C142 (UniProt Q9UGR2) | -0.0603
18 | ZC3H7B C138 (UniProt Q9UGR2) | -0.123
19 | ZNF623 C97 | -0.457
20 | ZC3HC1 C156 (UniProt Q86WB0) | 0.0198

Same assay, conditions: 200 µM; treatment time: 4 h; cell line lysate: HEK293T

Row | Target | log2 mean competition ratio
21 | ZNF24 C233 (UniProt P17028) | 0.121
22 | ZNF668 C49 (UniProt Q96K58) | -0.303
23 | ZFP64 C267 (UniProt Q9NTW7) | -0.134
24 | ZNF805 C185 | -0.00431
25 | ZMYM4 C1232 (UniProt Q5VZL5) | -0.115
26 | ZNF616 C163 | 0.0618
27 | ZNF428 C111 | 0.0767
28 | ZDBF2 C1597 | 0.165
29 | ZER1 C113 (UniProt Q7Z7L7) | -0.101
30 | ZFYVE26 C2428 (UniProt Q68DK2) | 0.00642
31 | ZFAND1 C184 (UniProt Q8TCF1) | -0.132
32 | ZKSCAN2 C109 | -0.0739
33 | ZNF668 C241 (UniProt Q96K58) | -0.141
34 | ZNF8 C94 (UniProt P17098) | -0.0659
35 | ZFYVE16 C1002 (UniProt Q7Z3T8) | 0.177
36 | ZNF451 C461 (UniProt Q9Y4E5) | -0.0598
37 | ZC3H7B C142 (UniProt Q9UGR2) | 0.0998
38 | ZC3H7B C138 (UniProt Q9UGR2) | 0.0081
39 | ZNF623 C97 | 0.0427
40 | ZC3HC1 C156 (UniProt Q86WB0) | -0.0889
